Laboratory results taken from paper PMC5352194 (Oncotarget, 2016).

Assays:
[1] = general procedure: Fmoc solid-phase peptide synthesis; 2-chlorotrityl chloride resin (1.12 mmol/gr); PyBop, DIPA; settings: whole synthesis, LC-MS
[2] = general procedure: Fmoc solid-phase peptide synthesis; 2-chlorotrityl chloride resin; PyBop, DIPA; settings: whole synthesis

PEPTIDE1{[FITC5].[GABA].C.S.S.A.G.S.L.F.C}$PEPTIDE1,PEPTIDE1,3:R3-11:R3$$$V2.0
final purity (method not given) [1]: 95% | isolated yield [2]: 42%

Some peptides are written in HELM: one residue between dots, names in brackets for other building blocks, links after the first $.
